The test system of the data set is ALuc16, ALuc47, RLuc8.6SG, NanoLuc. Nature of the data set: Wavelength shift of bioluminescence spectra compared to natural coelenterazine. It is filed as biochemical. Particulars: compared to natural coelenterazine and the like.

Regarding `O=c1c(Cc2ccc(O)cc2)nc2c(Sc3ccc(F)cc3)[nH]c(-c3ccc(O)cc3)cn1-2` [structural formula (2-2)], the “wavelength shift to the longer wavelength side” value was “approximately 50 nm”.
As to `O=c1c(Cc2ccc(O)cc2)nc2c(Sc3ccccc3)[nH]c(-c3ccc(O)cc3)cn1-2` [structural formula (2-1)], the “wavelength shift to the longer wavelength side” value is reported as “approximately 50 nm”.

(Values after patent US20250171450A1, “NOVEL COELENTERAZINE DERIVATIVES” (National Institute of Advanced Industrial Science and …, priority 2022, published 2025).)
